*: point of attachment. OBn = c1ccc(CO*)cc1; tBu = CC(C)(C)*
Assay: general procedure: solution-phase peptide synthesis; isobutyl chloroformate/N-methylmorpholine; (1-cyano-2-ethoxy-2-oxoethylideneamin)

| Substance | step yield (late stage modification step) | step yield (coupling step) | also measured |
| --- | --- | --- | --- |
| H-Phe-Lys(Boc)-Asp(O(t-Bu))-Phe-Phe-Phe-OBn | Yield: 96% | – | – |
| IPCSoc-Phe-Lys(Boc)-Asp(O(t-Bu))-Phe-Phe-Phe-OH | Yield: 99% | – | – |
| H-FAS(tBu)F-OBn | – | – | step yield (late stage modification step, run 1): Yield: 98%; step yield (late stage modification step, run 2): Yield: 95% |
| H-Phe-Lys(Boc)-Asp(O(t-Bu))-Phe-Phe-Phe-OH | Yield: 74% | – | – |
| CHBSoc-Phe-Ala-Ser(t-Bu)-Phe-OBn | – | Yield: 73% | – |
| IPCSoc-Phe-Lys(Boc)-Asp(O(t-Bu))-Phe-Phe-Phe-OBn | – | Yield: 73% | – |
